## Primary screen of a compound library

Measurements from “University of Dundee, Small-Polar-MMV Screening Library” (2021), ChEMBL document CHEMBL3988442.

The filed quantity is “Percent Effect” (%). The controls that fix the scale are not given in the record; negative values are as filed. This is an unselected part of the compounds tested. Two or more numbers in one place are separate tests of the same structure; such repeats can differ widely.

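Viability assay of Plasmodium falciparum sporozoites; the read-out is not stated. The concentration is filed as 10 mM, unlikely as a test dose, so the dose is not known. The record gives no direction; compounds that gave an IC50 in retests scored well above the rest, so higher reads as lower viability. Strong results were mostly tested again. Size under these conditions: about 34,000 compounds, about 280 of them at 50% or above in at least one test.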

SMILES,percent effect
Cn1cc(-c2nnc3sc(C4CCC4)nn23)cn1,-4.487%
O=S(=O)(CCCN1CCCC1Cn1cncn1)c1ccccc1 (configuration not stated),-2.489%
CCN(CC)C(=O)CN(C)C1CCc2ccccc21 (configuration not stated),6.265%
Fc1ccccc1CN(CCCn1ccnc1)CC1CCOC1.O=C(O)CC(O)(CC(=O)O)C(=O)O (configuration not stated),6.725%
COCCCN(C)[C@@H]1c2ccccc2C2(CCNCC2)[C@H]1O,-9.904%
[H][C@@]12CCN(Cc3cc(C)on3)C[C@@]1([H])O[C@@H](C(=O)N(C)C)C2,-18.01%
[H][C@]12CCN(C(=O)N3CCOCC3)C[C@@]1([H])OCCN(S(C)(=O)=O)C2,8.757%
CSc1ccccc1C(=O)N(C)Cc1nncn1C(C)C,-9.035%
CC(=O)N1CCC2(C1)c1ccccc1S(=O)(=O)N2CCC(C)C (configuration not stated),2.698%
Cc1ncc(CN2CC[C@@](C)(O)[C@H](Oc3cccc(F)c3)C2)cn1,-1.004%
CCOc1ccc(Cl)c(C(=O)N2CCN(c3ncccn3)CC2)n1,8.068%
Cn1cc(C(=O)Nc2cccc(Oc3ccncc3)c2)ccc1=O,3.482%
CC[C@H]1N(CC2CCC2)CCC[C@]12CCC(=O)N2Cc1ccncc1.O=C(O)C(F)(F)F.O=C(O)C(F)(F)F,-2.715%
Cc1cc(C)nc(N2CCC(c3cncc(-n4ccnc4)n3)CC2)n1,9.874%
Cc1cccc(Nc2ccc(C3CCN(Cc4ncc[nH]4)CC3)nc2)n1,4.946%
O=C(O)C(F)(F)F.[H][C@@]12CN(Cc3ccccc3)CCC[C@]1(C(=O)O)CN(c1ncccn1)C2,6.169%
CCc1nnsc1C(=O)NCc1nnc2n1CCC2,1.053%
O=C(NCCc1ccn(-c2ccccc2)n1)N1CCCC(CO)C1 (configuration not stated),4.66%
O=C1CCCN1Cc1ncn2c1CN(C(=O)c1cccc(F)c1)CCC2,-5.306%
CCCc1nnc(NC(=O)NC(C)Cn2cccn2)s1 (configuration not stated),5.557%
Cc1ccc(N(CC(=O)N2CCCCC2)C(=O)C2COCCO2)cc1 (configuration not stated),-4.035%
COCc1nc(C(=O)NS(=O)(=O)c2ccc(Cl)cc2F)cs1,12.54%
NCCn1nc(C2CCN(Cc3ccc(Cl)c(Cl)c3)C2)c2nccnc21 (configuration not stated),-15.05%
CC(=O)N1CCN(C(=O)NCCCN(C(C)C)S(C)(=O)=O)CC1,-12.99%
[H][C@@]12CN(Cc3nccs3)C[C@]1([H])CN(C(=O)C1CCOC1)C2 (some centres not stated),-5.714%
O=C(NC[C@@H]1CCCO1)c1cccnc1N1CCCC1c1ccccn1 (some centres not stated),-9.538%
O=C(c1ccc(O)nc1)N1CCC(Nc2cccnn2)CC1,-2.619%
COC(=O)CN1CCCN(C(=O)CCOc2cccc(C)c2C)CC1,0.5587%
O=C(NCC1(O)CCC1)NC(c1cc(F)ccc1F)C1CC1 (configuration not stated),1.434%
CC(=O)N1CCCCC1c1nc(N)ncc1-c1ccccc1 (configuration not stated),-5.19%
CCNC(=O)Nc1ccc2c(ccn2CC(=O)N(CC)CC)c1,0.4946%
C=Cc1ccc(C(=O)N2CCCC(Nc3ccccc3)C2)cc1 (configuration not stated),-5%
CNc1cc(N2CCCC2CNCc2cscn2)ncn1 (configuration not stated),9.86%
CC(C)Cn1cncc1-c1nc2c([nH]1)CCCNC2=O,-3.86%
Cc1c(Br)cc2c(c1C)OCC(N(C)C)C2=O (configuration not stated),10.62%
CCc1c(C)nc2n(c1=O)CC(C(=O)Nc1nc3c(s1)CCCC3)CS2 (configuration not stated),-11.73%
O=C(O)C(F)(F)F.[H][C@@]12C[C@@H](C(=O)Nc3cnccn3)CN(Cc3ccsc3)[C@]1([H])CCO2,-4.866%
Cn1ccnc1CN1CCCC2(CCN(CC3CCCO3)CC2)C1.O=C(O)C(F)(F)F.O=C(O)C(F)(F)F (configuration not stated),-9.869%
COc1cccc(C2CCCN2C(=O)c2cc3c([nH]c2=O)CCC3)c1 (configuration not stated),-0.9019%
CC(NC(=O)CCCc1nc(C(C)(C)C)no1)c1ccccn1 (configuration not stated),4.866%
Cn1ccc(CN2CCC(Cc3ccccc3)CC2)cc1=O,0.6077%
O=C(CNCCn1cccn1)NCC1(c2ccccc2)CCOCC1,10.03%
COc1ccccc1CNC(=O)CNCCn1cc(C)cn1,7.81%
CC(C)COCC(NC(=O)CSc1nnc[nH]1)c1ccco1 (configuration not stated),-4.338%
Cc1ccc(CN(CCN(C)C)Cc2c(C)nc3sccn23)o1.O=C(O)CC(O)(CC(=O)O)C(=O)O,-1.476%
CC(=O)Nc1nc(C(=O)NCc2ccnc(N3CCCC3)c2)cs1,3.432%
CN1CCc2nc(C3CCN(C(=O)CCC4CCCC4)CC3)ncc2C1,-16.03%
[H][C@]12CCC[C@@]1(COCc1ccccn1)CN(C(=O)Cc1ccsc1)C2,7.932%
CCc1nccn1C1CCCN(C(=O)c2cncn2-c2ccccc2)C1 (configuration not stated),3.727%
COc1cc(CN2CCN(c3cccc(OC)c3)C(=O)C2)cc(OC)c1,-10.3%
Cc1ccc(CN2CCN(c3nc4c(s3)c(C)nn4C)C(C)C2=O)cc1 (configuration not stated),-6.036%
CCOc1nc2cccnc2n(CC(=O)NCCOC)c1=O,10.84%
CN1CCCC(c2n[nH]c3ncccc23)C1 (configuration not stated),-20.5%
Cc1cc(-c2cnn(CCNC(=O)C3CC3)c2C2CC2)on1,-2.827%
CC(CCc1ccccc1)N1CCC(C(=O)Nc2ccccn2)CC1 (configuration not stated),3.361%
CC(C(=O)N1CCc2ccccc2C1)n1cc(Br)cn1 (configuration not stated),3.708%
COc1ccccc1OCC(=O)NS(=O)(=O)c1ccc(Br)s1,3.733%
Cc1ccc(S(=O)(=O)NC(=O)COc2cccc(C(N)=O)c2)s1,-7.065%
Cc1cnn(CCC(=O)N2CCCC(c3noc(C)n3)C2)c1 (configuration not stated),-3.512%
O=C(O)C(F)(F)F.O=C(O)C(F)(F)F.[H][C@@]12CN(Cc3ccco3)C[C@]1([H])[C@H](OC)CCN2Cc1c(C)noc1C,4.333%
O=C(c1cc(F)ccc1F)C1CCN(C(=O)c2ccco2)CC1,-3.707%
O=C(O)C(F)(F)F.[H][C@@]12CCN(Cc3cc(C)on3)C[C@]1([H])OCCN(c1ccsc1)C2=O,-5.469%
Cc1ccc(-c2nc(CN3CCCC(Cn4cncn4)C3)cs2)o1 (configuration not stated),-16.48%
CNc1ncc(C(=O)N2CC[C@@](O)(C3CCOCC3)[C@H](C)C2)cn1,-3.947%
Cl.Cn1cc([C@@H]2CN(S(=O)(=O)c3ccccc3F)C[C@H]2N)c2ccncc21,15.22%
COc1ccc(CN2CCn3cncc3C2)cc1Cn1cncn1,-6.746%
Cc1n[nH]c(C)c1-c1nccnc1CC1CCN(S(C)(=O)=O)C1 (configuration not stated),10.6%
CCn1ccnc1CN1CCC(Oc2cccc(F)c2)(C(=O)O)CC1,-17.84%
Cc1ccc(C)c2c(C)c(C(=O)NCCCn3ccnn3)[nH]c12,-5.817%
c1csc(-c2nc(CN3CCCC3Cn3cncn3)co2)c1 (configuration not stated),1.063%
CC(C)[C@H](NS(C)(=O)=O)C(=O)NCc1cc(-c2cccc(Cl)c2)nn1C,5.673%
Cc1cnn(CCNCc2csc(-c3ncccn3)n2)c1,5.197%
CCc1[nH]c2c(CNc3nccc(N)n3)cc(F)cc2c1C,1.385%
FC(F)(F)c1n[nH]c2c1CN(CCc1ccccn1)CC2,13.9%
c1cnc(N2CCC(c3csc(Nc4cnccn4)n3)CC2)nc1,-5.517%
COCCNC(=O)c1cc2c(s1)CCN2S(C)(=O)=O,-2.867%
O=C(O)C(F)(F)F.O=C(O)C(F)(F)F.[H][C@@]12COC[C@]1(COc1ccccn1)CN(c1ncc(F)cn1)C2,8.263%
Cc1cn2nc(N3CCN(Cc4c(C)noc4C)CC3)sc2n1,-2.557%
COc1ccc(NC(=O)NC(C)c2nc[nH]n2)cc1 (configuration not stated),-24.45% and -7.709% and -11.14%
O=C(O)C(F)(F)F.O=C(O)C(F)(F)F.c1cnc(N2CCC3(CCN(CC4CC4)CC3)CC2)nc1,-2.349%
O=C(O)C(F)(F)F.[H][C@@]12CO[C@@H](CNS(C)(=O)=O)[C@]1([H])CCN(Cc1ccccc1)C2,10.23%
O=C(c1cc(C2CC2)[nH]n1)N1CCCC(n2cncn2)C1 (configuration not stated),-2.415%
CN1CCN(S(=O)(=O)c2ccccc2)Cc2cccnc21.O=C(O)C(F)(F)F,13.16%
Cc1cc(N2CCC(CC(N)=O)CC2)nc(-c2ccncc2)n1,0.1778%
CCOCC(O)CN1CCN(C(=O)c2cccc(F)c2)CC1 (configuration not stated),7.412%
Cc1cc(Br)c(O)c(-c2nc(N3CCOCC3)sc2C)c1,7.368%
Cc1cc(NC(=O)NCc2ccncc2)ccc1OC(C)C,-13.73%
CC(C)[C@@H](CO)Nc1cc(-c2cn[nH]c2)ncn1,4.996%
CN1CCCN(c2nccc(-c3cncnc3C3CCCCC3)n2)CC1,2.794%

7 of the entries, repeated:

SMILES	percent effect
Cn1ccnc1CN1CCCC2(CCN(CC3CCCO3)CC2)C1.O=C(O)C(F)(F)F.O=C(O)C(F)(F)F (configuration not stated)	-9.869%
CCCc1nnc(NC(=O)NC(C)Cn2cccn2)s1 (configuration not stated)	5.557%
O=C(c1cc(C2CC2)[nH]n1)N1CCCC(n2cncn2)C1 (configuration not stated)	-2.415%
CCNC(=O)Nc1ccc2c(ccn2CC(=O)N(CC)CC)c1	0.4946%
Cc1ccc(N(CC(=O)N2CCCCC2)C(=O)C2COCCO2)cc1 (configuration not stated)	-4.035%
Cc1c(Br)cc2c(c1C)OCC(N(C)C)C2=O (configuration not stated)	10.62%
CC(NC(=O)CCCc1nc(C(C)(C)C)no1)c1ccccn1 (configuration not stated)	4.866%